Measurements reported in PMC4865129.
These are yes or no findings as the source states them, for the method shown. In cells and extracts the contact can be indirect. Some entries that bind do so weakly or less than the wild type. Where a sequence is shown, tags or fusion partners need not be part of it.

What was measured:
[1] = biological target: T1, AtMORC4 with a C-terminal FLAG or MYC epitope tag (pAtMORC4::AtMORC4-FLAG, pAtMORC4::AtMORC4-MYC) (Arabidopsis thaliana) (UniProt F4KAF2); experiment: co-IP; F1 plants carrying a FLAG-tagged and a MYC-tagged transgene; M2 magnetic FLAG beads added to the supernatant; western blot with HRP-coupled FLAG-specific and MYC-specific antibodies
T1 sequence: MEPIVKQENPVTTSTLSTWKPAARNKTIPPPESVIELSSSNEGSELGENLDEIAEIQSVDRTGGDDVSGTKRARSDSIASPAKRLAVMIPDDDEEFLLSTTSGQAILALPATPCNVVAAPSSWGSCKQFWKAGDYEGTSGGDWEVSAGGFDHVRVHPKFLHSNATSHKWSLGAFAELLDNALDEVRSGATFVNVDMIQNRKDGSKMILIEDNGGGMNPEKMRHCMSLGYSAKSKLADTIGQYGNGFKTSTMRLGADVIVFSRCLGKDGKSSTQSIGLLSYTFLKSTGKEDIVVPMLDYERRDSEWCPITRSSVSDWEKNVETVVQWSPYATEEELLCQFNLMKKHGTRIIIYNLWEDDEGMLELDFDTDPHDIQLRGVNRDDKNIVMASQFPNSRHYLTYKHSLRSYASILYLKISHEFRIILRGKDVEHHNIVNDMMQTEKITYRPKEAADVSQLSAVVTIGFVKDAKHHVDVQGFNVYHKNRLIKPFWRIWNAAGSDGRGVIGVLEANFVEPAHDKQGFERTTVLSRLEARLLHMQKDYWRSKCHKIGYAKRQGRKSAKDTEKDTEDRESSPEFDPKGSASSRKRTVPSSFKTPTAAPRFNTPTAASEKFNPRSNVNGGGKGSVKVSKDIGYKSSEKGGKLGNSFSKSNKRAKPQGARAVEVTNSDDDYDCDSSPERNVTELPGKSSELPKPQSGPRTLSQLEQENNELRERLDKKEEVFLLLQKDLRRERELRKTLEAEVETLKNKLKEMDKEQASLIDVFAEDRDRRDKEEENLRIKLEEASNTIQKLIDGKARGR

[2] = biological target: AtMORC7 with a C-terminal FLAG or MYC epitope tag (pAtMORC7::AtMORC7-FLAG, pAtMORC7::AtMORC7-MYC) (Arabidopsis thaliana) (UniProt F4JRS4); experiment: as above

B1: AtMORC4 with a C-terminal FLAG or MYC epitope tag (pAtMORC4::AtMORC4-FLAG, pAtMORC4::AtMORC4-MYC) (protein, UniProt F4KAF2 1-800)
chain: T1 sequence
binding [1]: binds

B2: AtMORC7 with a C-terminal FLAG or MYC epitope tag (pAtMORC7::AtMORC7-FLAG, pAtMORC7::AtMORC7-MYC) (protein, UniProt F4JRS4 1-707)
chain: MDNSIHVKREIQLPSTSPAGFPGRESVTVVDLCSSDDDSDIGEVAGGLEKVGNNFVGLKRGRDTFGGSSEVDRNNVKKVTTLAELGVGLPEGFGQSNPPESLTHPIPANPCNVFRPVPPPPPPPYAGTSGKIGGCKQFWKAGDYEGAAGDNWDLSSGGFDHVRVHPKFLHSNATSHKWALGAFAELLDNALDEVASGATYVKVDMLENNKGGNRMLLIEDNGGGMDPEKMRQCMSLGYSAKSKLANTIGQYGNGFKTSTMRLGADVIVFSRCPGKDGKSSTQSIGLLSYTFLRSTGKEDIVVPMLDYERRDPEWSKIIRSSTRDWDKNVETIIQWSPFSSEEDLLHQFDLMKDRGTRIIIYNLWEDDQGMLELDFDADPYDIQLRGVNREERNIKMASQFPNSRHFLTYKHSLRSYVSILYLRIPPGFRIILRGIDVEHHSVVNDMMQTEQITYRPQSESYGVVTNMSAIVIIGFVKDAKHHVDVQGFNVYHKNRLIKPFWRIWNATGSDGRGVIGVLEANFVEPAHDKQGFERTTVLARLESRLVQMQKTYWSTNCHKIGYAPRRREKSAYGYDNRDSSPENDREGPSSIKTPTPASDKFYSSSYPNHNGDNGVSGKDGARLQEELRREKERRKALEVEVQLSRQKIEEMKKEQENLIEIFSEERDRRDGEEEVLRNKLEEASNTIDDLLNKIKKMEGSKVPSWRH
binding [1]: no binding | binding [2]: binds
